Results deposited as PubChem BioAssay AID652272 (Drosophila RNAi Screening Center, 2013)
The screen tested about 21,000 reagents; shown is a random part of those with a known target gene and a result. In the full data, 503 (2.4%) were called active. 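Raw plate light values, not normalised; calls rest on replicate z-scores that were not deposited; hits include reporter decreases as well as increases.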 Entries without a mark were called inactive. Reagents against one gene are numbered here. The record does not give: the amount of reagent, the time to read-out.

Assay: 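Genome-wide knock-down search for components of Hedgehog signalling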 (primary screen)
Cells: Drosophila clone 8 (Cl8) cells
Reagent: long dsRNA against Drosophila genes
Read-out: 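Firefly light from a Hedgehog-responsive ptc promoter reporter and Renilla reference light, both read on a plate reader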
Reading the numbers: firefly Hh reporter signal: higher = more ptc reporter light; Renilla reference signal: higher = more Renilla control light
Hit rule: 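Called a hit if the two-replicate mean z-score lies below -2 or above +3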
Meaning of the calls: active = hit: reporter lowered or raised; inactive = not a hit

Silencing of CG11601 resulted in: firefly Hh reporter signal, replicate 1 = 1.02e5; firefly Hh reporter signal, replicate 2 = 60112; Renilla reference signal, replicate 1 = 2320; Renilla reference signal, replicate 2 = 1362.
After knock-down of Bsg (Basigin) #1, the record shows firefly Hh reporter signal, replicate 1 = 3.98e5; firefly Hh reporter signal, replicate 2 = 1.22e5; Renilla reference signal, replicate 1 = 20797; Renilla reference signal, replicate 2 = 5253.
Silencing of Bsg (Basigin) #2 gave: firefly Hh reporter signal, replicate 1 = 5.44e5; firefly Hh reporter signal, replicate 2 = 1.97e5; Renilla reference signal, replicate 1 = 27305; Renilla reference signal, replicate 2 = 7544.
Depletion of CG32856 resulted in: firefly Hh reporter signal, replicate 1 = 51767; firefly Hh reporter signal, replicate 2 = 1.95e5; Renilla reference signal, replicate 1 = 10850; Renilla reference signal, replicate 2 = 4572.
For Camp (Cathelicidin-like antimicrobial protein) the deposit lists firefly Hh reporter signal, replicate 1 = 81830; firefly Hh reporter signal, replicate 2 = 54976; Renilla reference signal, replicate 1 = 1509; Renilla reference signal, replicate 2 = 3914.
CG12321 gave firefly Hh reporter signal, replicate 1 = 1.54e5; firefly Hh reporter signal, replicate 2 = 1.33e5; Renilla reference signal, replicate 1 = 6407; Renilla reference signal, replicate 2 = 5139.
With knock-down of CG3104, the screen gave firefly Hh reporter signal, replicate 1 = 1.83e5; firefly Hh reporter signal, replicate 2 = 1.34e5; Renilla reference signal, replicate 1 = 4259; Renilla reference signal, replicate 2 = 3165.
CG8547 scored firefly Hh reporter signal, replicate 1 = 1.10e5; firefly Hh reporter signal, replicate 2 = 1.10e5; Renilla reference signal, replicate 1 = 4768; Renilla reference signal, replicate 2 = 4321.
After knock-down of Xxylt (Xyloside xylosyltransferase) the results were firefly Hh reporter signal, replicate 1 = 1.04e5; firefly Hh reporter signal, replicate 2 = 1.28e5; Renilla reference signal, replicate 1 = 4730; Renilla reference signal, replicate 2 = 5196.
With knock-down of CG10470, the screen gave firefly Hh reporter signal, replicate 1 = 67396; firefly Hh reporter signal, replicate 2 = 39116; Renilla reference signal, replicate 1 = 1754; Renilla reference signal, replicate 2 = 4340.
CG7236 scored firefly Hh reporter signal, replicate 1 = 74203; firefly Hh reporter signal, replicate 2 = 47815; Renilla reference signal, replicate 1 = 2203; Renilla reference signal, replicate 2 = 4538.
Depletion of CG7707 came out at: firefly Hh reporter signal, replicate 1 = 1.46e5; Renilla reference signal, replicate 1 = 2724; Renilla reference signal, replicate 2 = 2637.
